Results deposited as PubChem BioAssay AID1259308 (NCATS, 2017)
This is one part, drawn at random, of about 59,000 reagents. Over the whole deposit, about 1,510 (2.6%) got an active call. 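Calls use total luciferase alone and ignore viability, so some active siRNAs may act by altering cell number.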 The numbers tell different reagents against one gene apart. Reagent sequences are not shown.

Test: 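Candidate targets for better recombinant protein yield in mammalian cells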 (primary screen)
System: human HEK293 embryonic kidney cells stably expressing firefly luciferase (HEK-CMV-Luc2-Hygro)
Reagents: single siRNA against human genes, 0.8 pmol siRNA per well
Timing: 72 h
Measured: 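Reporter luminescence and viable-cell signal on separate replicate plates, given as percent of non-targeting control and median/MAD z-scores, plus per-cell luciferase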
Reading the numbers: total luciferase, z-score and total luciferase, % of control: higher = more reporter protein produced; luciferase per cell, z-score: higher = more reporter output per viable cell; viable cells, % of control: higher = more viable cells
Hit rule: 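An siRNA counts as active if its total luciferase robust z-score exceeds 3; genes with two or more such siRNAs out of three were retested with fresh siRNAs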
Calls: active = raised luciferase; inactive = no rise

| Target gene | siRNA no. | total luciferase, z-score | total luciferase, % of control | luciferase per cell, z-score | viable cells, % of control | outcome |
| --- | --- | --- | --- | --- | --- | --- |
| LTK (GeneID 4058) | 1 | 0.62 | 94.2 | 0.567 | 90.7 | inactive |
| LTK (GeneID 4058) | 2 | -1.61 | 49.8 | -1.89 | 91.4 | inactive |
| LTK (GeneID 4058) | 3 | 0.00857 | 82.1 | -0.29 | 99 | inactive |
| POFUT3 (GeneID 84750) | 1 | 1.98 | 121 | 1.91 | 81.8 | inactive |
| POFUT3 (GeneID 84750) | 2 | -1.24 | 57.3 | -0.95 | 82.2 | inactive |
| POFUT3 (GeneID 84750) | 3 | 0.468 | 91.2 | 0.889 | 80.6 | inactive |
| UNC5C (GeneID 8633) | 1 | -0.286 | 76.2 | -0.763 | 104 | inactive |
| UNC5C (GeneID 8633) | 2 | 0.0533 | 82.9 | -0.366 | 102 | inactive |
| UNC5C (GeneID 8633) | 3 | -0.0571 | 80.8 | -0.0363 | 91.1 | inactive |
| SLC25A10 (GeneID 1468) | 1 | -0.444 | 73.1 | 0.216 | 77.1 | inactive |
| SLC25A10 (GeneID 1468) | 2 | 0.768 | 97.2 | 0.463 | 96.1 | inactive |
| SLC25A10 (GeneID 1468) | 3 | 0.856 | 98.9 | 0.403 | 99.4 | inactive |
| HGF (GeneID 3082) | 1 | 0.185 | 85.6 | -0.0196 | 96.1 | inactive |
| HGF (GeneID 3082) | 2 | 3.45 | 150 | 3.15 | 73.4 | active |
| HGF (GeneID 3082) | 3 | -1.17 | 58.6 | -1.25 | 90.9 | inactive |
| SLAMF1 (GeneID 6504) | 1 | 2.91 | 140 | 1.58 | 103 | inactive |
| SLAMF1 (GeneID 6504) | 2 | 0.638 | 94.6 | 0.652 | 89 | inactive |
| SLAMF1 (GeneID 6504) | 3 | -1.82 | 45.7 | -1.14 | 69.1 | inactive |
| LLGL1 (GeneID 3996) | 1 | 4.26 | 167 | 2.24 | 103 | active |
| LLGL1 (GeneID 3996) | 2 | -2.9 | 24.2 | -2.03 | 46.1 | inactive |
| LLGL1 (GeneID 3996) | 3 | -0.0884 | 80.1 | -0.559 | 104 | inactive |
| GYPB (GeneID 2994) | 1 | -0.566 | 70.6 | -0.551 | 91.2 | inactive |
| GYPB (GeneID 2994) | 2 | 0.634 | 94.5 | 0.432 | 94.2 | inactive |
| GYPB (GeneID 2994) | 3 | 0.0181 | 82.2 | -0.146 | 95.5 | inactive |

Laid out differently: entries from further up.
{"Target gene": "SLC25A10 (GeneID 1468)", "siRNA no.": 1, "total luciferase, z-score": -0.444, "total luciferase, % of control": 73.1, "luciferase per cell, z-score": 0.216, "viable cells, % of control": 77.1, "outcome": "inactive"}
{"Target gene": "SLC25A10 (GeneID 1468)", "siRNA no.": 2, "total luciferase, z-score": 0.768, "total luciferase, % of control": 97.2, "luciferase per cell, z-score": 0.463, "viable cells, % of control": 96.1, "outcome": "inactive"}
